Measured values from publication PMC11845725.

Molecular target: TGM6-D3 (TGM6 domain 3) (Heligmosomoides polygyrus)
Assay: ITC; each type II receptor (ActRII, ActRIIB, BMPRII) titrated into TGM6-D3 or buffer alone; 25 mM HEPES, 150 mM NaCl, 0.05% NaN3, pH 7.4; both purified

B1: ActRIIB extracellular domain (receptor, UniProt Q13705 19-137)
chain: SGRGEAETRECIYYNANWELERTNQSGLERCEGEQDKRLHCYASWRNSSGTIELVKKGCWLDDFNCYDRQECVATEENPQVYFCCCEGNFCNERFTHLPEAGGPEVTYEPPPTAPTLLT
  binding: no binding

B2: BMPRII extracellular domain (receptor, UniProt Q13873 27-150)
chain: SQNQERLCAFKDPYQQDLGIGESRISHENGTILCSKGSTCYGLWEKSKGDINLVKQGCWSHIGDPQECHYEECVVTTTPPSIQNGTYRFCCCSTDLCNVNFTENFPPPDTTPLSPPHSFNRDET
  binding: no binding

These are yes or no findings as the source states them, for the method shown.
